Measurements taken from PubChem BioAssay AID720504 (National Center for Advancing Translational Sciences (NCATS), 2013).
Several values for one entry are separate records, joined by “and”; a condition that tells them apart may be missing. Equal values may be shown once. About 10,000 (2.8%) of roughly 360,000 compounds were called active. The inconclusive results got no clear call from the source; some entries with a clear call stand among them for comparison. Calls follow the shape of the dose curve; as a rule, active = well fitted inhibition curve with a large enough effect; inconclusive = small, poorly fitted or top-dose-only effect; inactive = flat fitted curve, though single readings scatter. A potency beside an inconclusive call is a rough fit, not a confirmed value.

Chains of the proteins cited; added tags and fusions are not shown.
UniProt P53350, whole entry, looked up: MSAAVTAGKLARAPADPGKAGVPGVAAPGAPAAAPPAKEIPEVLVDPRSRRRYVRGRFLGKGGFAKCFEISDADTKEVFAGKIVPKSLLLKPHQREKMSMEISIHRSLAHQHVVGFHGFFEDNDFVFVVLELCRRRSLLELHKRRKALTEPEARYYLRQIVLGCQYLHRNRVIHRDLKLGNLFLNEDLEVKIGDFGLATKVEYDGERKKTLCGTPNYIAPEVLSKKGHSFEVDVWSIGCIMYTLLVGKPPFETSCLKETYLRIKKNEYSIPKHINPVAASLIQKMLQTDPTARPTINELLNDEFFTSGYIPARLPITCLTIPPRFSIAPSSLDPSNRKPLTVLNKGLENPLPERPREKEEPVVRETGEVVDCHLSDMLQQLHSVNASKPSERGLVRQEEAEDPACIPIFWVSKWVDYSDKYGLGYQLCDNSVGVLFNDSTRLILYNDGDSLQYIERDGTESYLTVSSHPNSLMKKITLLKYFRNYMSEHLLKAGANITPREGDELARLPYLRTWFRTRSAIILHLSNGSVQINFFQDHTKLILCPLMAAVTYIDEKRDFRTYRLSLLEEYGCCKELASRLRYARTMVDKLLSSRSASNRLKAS

Biological target: Serine/threonine-protein kinase PLK1 (Homo sapiens) (UniProt P53350)
Test: qHTS for Inhibitors of PLK1-PDB (polo-like kinase 1 - polo-box domain): Primary Screen; also: nearly all actives have a fitted effect of over 65% in size; as to max response, negative = inhibition: series mostly up to about 57 µM
Settings: Plk1 PBD binding of FITC phosphopeptide, fluorescence polarization
% is scaled to controls: 0 for no effect and ±100 for the full control effect; potency is read from the fitted curve at half-maximal effect.

| SMILES | max response, negative = inhibition | Potency |
| --- | --- | --- |
| CC1CN(c2ncnc3c2oc2ccccc23)CC(C)O1 (stereo not given) | inactive: -0.845% |  |
| CCOC(=O)/C=C1\CN(CCC(C)C)S(=O)(=O)c2ccccc21 | inactive: -16.5% |  |
| Cc1cc(C)nc(SCC(=O)c2ccc([N+](=O)[O-])cc2)n1 |  | active: 21.2 µM |
| COc1ccc(CNC(=O)C(c2ccco2)N(C(=O)c2ccccn2)c2ccccc2)cc1 (stereo not given) | inactive: -9.86% |  |
| Cc1ccc(C2CC(c3ccc(F)cc3)Nc3nc(N)nn32)cc1 (stereo not given) |  | active: 26.7 µM |
| c1ccc(-n2nnc3c(N4CCOCC4)ncnc32)cc1 |  | inconclusive: 29.9 µM [inhibitor, partial curve] |
| CSc1nc(Nc2ccc(Cl)cc2)c(C#N)c(=O)[nH]1 | inactive: -2.79% |  |
| COc1ccc(OCCCC(=O)OCC(=O)Nc2ncc(Cl)cc2Cl)cc1 |  | inconclusive: 26.7 µM [inhibitor, single point] |
| CCn1c(CNC(=O)c2ccc(OC)c(OC)c2)nnc1SCC(=O)c1ccc(OC)cc1 |  | inconclusive: 26.7 µM [inhibitor, single point] |
| Cc1c(NC(=O)c2ncn[nH]2)cccc1-c1nc2ccccc2s1 | inactive: -5.35% |  |
| COc1ccc(CN(C#N)c2nc(SC)nc(N(C)C)n2)cc1 | inactive: -0.0288% |  |
| NC(=O)C1CCN(c2oc(-c3ccccc3)nc2S(=O)(=O)c2ccc(Br)cc2)CC1 | inactive: -22.5% |  |
| Cc1cnc(C=O)c2cccc([N+](=O)[O-])c12 | inactive: -7.04% |  |
| COc1ccc(C2=NS(=O)(=O)N(C)C(C(=O)N(C)Cc3ccccc3)=C2)cc1OC |  | inconclusive: 37.7 µM [inhibitor, single point] |
| CC(=O)NCCNC(=O)C1Cc2c(-c3ccccc3Oc3ccccc3)ccnc2O1 (stereo not given) | inactive: -5.75% |  |
| O=C(O)c1cccc2c1C(=O)c1ccc(-c3ccc(OC(F)(F)F)cc3)cc1S2(=O)=O |  | inconclusive: 37.7 µM [inhibitor, single point] |
| O=C(O)c1cccc(N/N=C/c2cn(-c3ccccc3)nc2-c2cccs2)c1 |  | inconclusive: 21.2 µM [inhibitor, single point] |
| Cc1ccc(/C=C/C(=O)Nc2cccc3ncccc23)o1 |  | inconclusive: 37.7 µM [inhibitor, single point] |
| Cc1ccc2nc(N/C(=N/S(=O)(=O)c3ccc(F)cc3F)c3ccccc3)sc2c1 |  | inconclusive: 37.7 µM [inhibitor, single point] |
| CCCCNC(=O)c1ccccc1NC(=O)CN(c1ccccc1)S(=O)(=O)N(C)C |  | inconclusive: 26.7 µM [inhibitor, partial curve] |
| CCCC(=O)OCCNc1cc(SCc2ccco2)c2nonc2c1[N+](=O)[O-] |  | inconclusive: 11.9 µM [inhibitor, partial curve] |
| O=C(COc1ccccc1)Nc1ccc(S(=O)(=O)Nc2ccccn2)cc1 |  | inconclusive: 29.9 µM [inhibitor, partial curve] |
| CC1=C(C(=O)Nc2ccccc2C(F)(F)F)C(c2ccc(C)s2)NC(=S)N1 (stereo not given) | inactive: -11.4% |  |
| COc1ccc(S(=O)(=O)Nc2ccc(-n3cccc3)cc2)cc1 |  | inconclusive: 37.7 µM [inhibitor, single point] |

| SMILES | max response, negative = inhibition | Potency |
| --- | --- | --- |
| CCOC(=O)C1C(c2cc(OC)c(OC)c(OC)c2)NC(=S)NC1(O)C(F)(F)F (stereo not given) | inactive: -26.8% |  |
| CC(=O)NNC(=O)c1sc(=S)n2c1[nH]c(=O)c1sccc12 |  | active: 21.2 µM |
| CCOC(=O)CN(C(=O)c1snc(C(N)=O)c1N)C(C(=O)NC1CCCCC1)c1ccc(F)cc1 (stereo not given) | inactive: -14.7% |  |
| COc1cc(Cl)c(C)cc1NC(=S)NN |  | active: 26.7 µM |
| O=C(NCCN1CCCC1=O)C1CCC(=O)N(CCc2cccc(F)c2)C1 (stereo not given) | inactive: 0.39% |  |
| Fc1ccccc1NC(=S)Nn1cnnc1 |  | active: 6.7 µM |
| O=C1NC(=Nc2ccc(O)cc2)S/C1=C\C=C\c1ccco1 |  | inconclusive: 23.8 µM [inhibitor, partial curve] |
| COc1cccc(C2/C(=C(/O)c3ccc(C)cc3)C(=O)C(=O)N2Cc2ccco2)c1 (stereo not given) | inactive: -2.49% |  |
| CC(C)OC(=O)c1cc2c(ccn2C)n1CC(=O)N(Cc1ccccc1)c1ccc(F)cc1 | inactive: -3.56% |  |
| COc1cc(C(c2c(C)[nH][nH]c2=O)c2c(C)[nH][nH]c2=O)ccc1OC(C)C |  | inconclusive: 23.8 µM [inhibitor, single point] |
| CCCCC1Cc2[nH][nH]c(=O)c2C(c2ccc(Cl)cc2)O1 (stereo not given) |  | inconclusive: 11.9 µM [inhibitor, single point] |
| CC(NS(=O)(=O)c1ccc(Cl)c(Cl)c1)C(=O)Nc1cccnc1 (stereo not given) |  | inconclusive: 23.8 µM [inhibitor, partial curve] |
| CCN(CC)c1nc2ccccc2[nH]1 | inactive: -2.93% |  |
| Cc1cccc(NNC(=S)Nc2ccccc2)c1 |  | inconclusive: 21.2 µM [inhibitor, partial curve] |
| CC(=O)OCC1=C(C(=O)O)N2C(=O)C(NC(=O)c3ccc(COc4ccc(Cl)cc4)o3)C2SC1 (stereo not given) |  | inconclusive: 16.8 µM [inhibitor, partial curve, poor fit] |
| O=C(CCCCl)N1CCc2[nH]c3ccccc3c2C1 | inactive: -5.32% |  |
| CCOC1=C2[C@H](c3ccccc3Cl)N(S(=O)(=O)c3ccc(C)cc3)C[C@H]2C(C#N)(C#N)C(C#N)(C#N)C1 |  | active: 26.7 µM |
| c1ccc(-c2n[nH]c(-c3ccccn3)n2)nc1 | inactive: 2.26% and inactive: -3.51% |  |
| Cc1nc2scc(C)n2c(=O)c1S(=O)(=O)Nc1ccc(OC(F)(F)F)cc1 |  | inconclusive: 33.6 µM [inhibitor, partial curve, poor fit] |
| Cc1cc(C)c2nc3sc(=Cc4ccc(-c5ccccc5C(=O)O)o4)c(=O)n3c2c1 |  | inconclusive: 15 µM [inhibitor, full curve] |
| CC(=O)N1CCN(c2ccccc2NC(=O)COc2cc(C)cc(C)c2)CC1 |  | inconclusive: 23.8 µM [inhibitor, single point] |
| COc1ccccc1/C=C/C=N/n1c(-c2ccccc2)n[nH]c1=S |  | inconclusive: 33.6 µM [inhibitor, single point] |
| COc1ccc(C2C(C(=O)c3cccs3)=C(O)C(=O)N2c2nnc(C)s2)cc1OC (stereo not given) |  | inconclusive: 29.9 µM [inhibitor, partial curve] |
| O=C(Oc1ccc([N+](=O)[O-])cc1)C1CC(=O)N(c2ccc3c(c2)OCCO3)C1 (stereo not given) |  | inconclusive: 26.7 µM [inhibitor, partial curve] |

Structures from the list above that contain a cyano group, in the order listed:

| SMILES | max response, negative = inhibition | Potency |
| --- | --- | --- |
| CSc1nc(Nc2ccc(Cl)cc2)c(C#N)c(=O)[nH]1 | inactive: -2.79% |  |
| COc1ccc(CN(C#N)c2nc(SC)nc(N(C)C)n2)cc1 | inactive: -0.0288% |  |
| CCOC1=C2[C@H](c3ccccc3Cl)N(S(=O)(=O)c3ccc(C)cc3)C[C@H]2C(C#N)(C#N)C(C#N)(C#N)C1 |  | active: 26.7 µM |

Remaining list, next part

| SMILES | max response, negative = inhibition | Potency |
| --- | --- | --- |
| COc1ccc(OC)c(-n2c(=S)[nH]c3c(sc(=S)n3-c3ccccc3C)c2=O)c1 |  | inconclusive: 33.6 µM [inhibitor, partial curve] |
| COCCN(C(=O)c1cccc(OC)c1)c1nnc(-c2ccncc2)s1 |  | inconclusive: 37.7 µM [inhibitor, single point] |
| COc1ccccc1/C=C/C=N/NC(=O)c1cc(-c2ccc(C)o2)[nH]n1 |  | inconclusive: 23.8 µM [inhibitor, partial curve] |
| COC(=O)c1c(NC(=O)CCC(=O)O)sc2c1CCCCC2 |  | inconclusive: 26.7 µM [inhibitor, partial curve] |
| CCS(=O)(=O)N1CCN(CC2CC3C=CC2C3)CC1 (stereo not given) | inactive: -5.14% |  |
| COc1ccc(-c2oc3ccccc3c(=O)c2OC(=O)c2ccc(C)cc2)cc1 | inactive: -4.38% |  |
| Cc1ccnc(NS(=O)(=O)c2ccc(NC(=O)Cc3cccs3)cc2)n1 |  | inconclusive: 26.7 µM [inhibitor, single point] |
| O=C(NCCN1C(=O)S/C(=C\c2cccnc2)C1=O)C1CC(=O)N(Cc2ccco2)C1 (stereo not given) |  | inconclusive: 15 µM [inhibitor, partial curve] |
| C[C@@H](C(=O)NC1CCCC1)N1C(=O)N2CCc3c([nH]c4ccccc34)[C@@]2(C)C1=O | inactive: -1.36% |  |
| CC(=O)Nc1cc(C(=O)NCc2ccco2)ccc1Sc1ccc(C)cc1 | inactive: -9.87% |  |
| CC(OC(=O)CSc1ccc([N+](=O)[O-])cc1)C(=O)NCc1ccccc1 (stereo not given) |  | active: 4.74 µM |
| O=C(NCc1cccnc1)/C(=C/c1ccc(-c2ccc(Cl)cc2)o1)S(=O)(=O)c1ccccc1 |  | inconclusive: 4.23 µM [inhibitor, full curve] |
| O=c1oc2ccccc2cc1C1=Nn2c(nnc2-c2cccnc2)SC1 |  | inconclusive: 37.7 µM [inhibitor, partial curve, poor fit] |
| CN(C)C1=NCCN1CCC1CCCC1 |  | inconclusive: 37.7 µM [inhibitor, single point] |
| Cc1ccc(C)c(S(=O)(=O)N2CCN(C(=O)/C=C/c3ccco3)CC2)c1 |  | inconclusive: 21.2 µM [inhibitor, partial curve] |
| Cc1ccc(OC(=O)COc2ccccc2C)c(-n2nc3ccccc3n2)c1 |  | inconclusive: 26.7 µM [inhibitor, partial curve] |
| CS(=O)(=O)N1CCN(C(=O)C(Sc2ccccc2)c2ccccc2)CC1 (stereo not given) |  | inconclusive: 20 µM [inhibitor, partial curve] |
| CCCn1cnc2cc(NCc3ccccc3O)ccc21 | inactive: -9.09% |  |
| CCc1ccc(N2C(=O)CC(NNc3nc4ccccc4s3)C2=O)cc1 (stereo not given) | inactive: -2.9% |  |
| Cc1cccc2cc(CN(Cc3cccnc3)C(=O)c3ccccc3F)c(Cl)nc12 | inactive: -3.4% |  |
| O=C1c2cccc3c([N+](=O)[O-])ccc(c23)C(=O)N1O |  | inconclusive: 26.7 µM [inhibitor, partial curve] |
| COc1cccc(CNC(=O)C2CSC3(C)CCC(=O)N23)c1 (stereo not given) | inactive: 3.4% |  |
